Library screen at single concentrations

Chains of the proteins cited; added tags and fusions are not shown. Residues count along the entry.
UniProt A4I591, 1-473: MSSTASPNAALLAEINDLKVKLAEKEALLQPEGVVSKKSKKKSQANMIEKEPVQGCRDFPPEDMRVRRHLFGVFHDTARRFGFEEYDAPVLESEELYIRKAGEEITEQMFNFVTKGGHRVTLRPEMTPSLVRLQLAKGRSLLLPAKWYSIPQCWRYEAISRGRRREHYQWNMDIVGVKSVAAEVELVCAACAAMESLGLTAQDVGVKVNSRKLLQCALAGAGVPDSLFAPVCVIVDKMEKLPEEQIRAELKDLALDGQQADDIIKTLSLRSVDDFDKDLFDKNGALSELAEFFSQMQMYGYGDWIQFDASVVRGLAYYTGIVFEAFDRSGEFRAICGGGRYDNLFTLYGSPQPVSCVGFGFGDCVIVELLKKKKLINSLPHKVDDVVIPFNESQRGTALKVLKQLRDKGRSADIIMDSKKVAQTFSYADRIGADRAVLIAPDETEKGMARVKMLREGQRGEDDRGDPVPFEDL
UniProt P9WFT3, whole entry: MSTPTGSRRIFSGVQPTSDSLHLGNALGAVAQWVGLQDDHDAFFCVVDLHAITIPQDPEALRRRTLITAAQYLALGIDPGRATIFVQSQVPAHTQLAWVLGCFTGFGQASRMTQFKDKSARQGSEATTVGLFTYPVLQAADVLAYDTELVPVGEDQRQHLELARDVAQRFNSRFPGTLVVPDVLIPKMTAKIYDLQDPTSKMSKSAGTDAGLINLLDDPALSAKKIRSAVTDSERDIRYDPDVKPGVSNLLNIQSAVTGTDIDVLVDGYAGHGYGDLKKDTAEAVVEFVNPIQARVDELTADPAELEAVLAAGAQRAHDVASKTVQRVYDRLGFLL
UniProt P9WNZ1, whole entry: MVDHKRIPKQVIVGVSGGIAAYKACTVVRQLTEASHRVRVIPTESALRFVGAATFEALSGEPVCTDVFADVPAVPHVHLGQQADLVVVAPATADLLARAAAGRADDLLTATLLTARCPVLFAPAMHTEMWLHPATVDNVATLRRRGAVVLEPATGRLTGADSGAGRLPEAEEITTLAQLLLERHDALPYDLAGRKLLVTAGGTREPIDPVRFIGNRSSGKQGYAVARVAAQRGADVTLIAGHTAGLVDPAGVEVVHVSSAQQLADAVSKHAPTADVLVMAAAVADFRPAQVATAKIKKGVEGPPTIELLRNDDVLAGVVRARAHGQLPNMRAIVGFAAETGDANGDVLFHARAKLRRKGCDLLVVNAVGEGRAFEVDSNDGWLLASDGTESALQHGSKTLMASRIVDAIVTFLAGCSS

Results are given as percent effect. The controls that fix the scale are not given in the record; negative values are as filed. Compounds were drawn at random from those tested, without regard to their results. Two or more numbers in one place are separate tests of the same structure; such repeats can differ widely. A dash means the value is not listed here; it may have been measured.

A: 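Enzyme assay of histidyl-tRNA synthetase; the read-out is not stated. Target: Histidine-tRNA ligase, Leishmania infantum (UniProt A4I591). Concentration: 30 µM. Direction is inferred from retests: higher values go with stronger inhibition. The assay is labelled LdHisRS but filed under L. infantum. Of about 69,000 compounds tested this way, about 410 (0.6%) reached 50% or more in at least one test.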
B: 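Tryptophan-tRNA ligase, Mycobacterium tuberculosis (UniProt P9WFT3). Enzyme assay of tryptophanyl-tRNA synthetase; the read-out is not stated. Tested at 10 µM. Higher most likely means stronger inhibition; the record gives no direction and few retests gave an IC50. About 65,000 compounds were tested under these conditions; 0.098% (about 64) showed 50% or more at least once.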
C: 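Assay of Toxoplasma gondii numbers, read through their beta-galactosidase reporter with a colour substrate. Tested at 10 µM. Higher reads as fewer parasites (inferred from which compounds were picked for retests). Of about 67,000 compounds tested this way, about 260 (0.38%) reached 50% or more in at least one test.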
D: 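Coenzyme A biosynthesis protein CoaBC, Mycobacterium tuberculosis (UniProt P9WNZ1). Enzyme assay of CoaBC with a phosphate dye (Biomol Green) read at 650 nm. Compounds at 30 µM. Higher reads as stronger inhibition, judged from the few compounds that gave an IC50. Most strong results did not repeat in a second test. About 67,000 compounds were tested under these conditions; 0.06% (about 40) showed 50% or more at least once.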

| Compound | A | B | C | D |
|---|---|---|---|---|
| `O=C(NCCC(=O)N1CCCC1)c1ccc(SCc2cccnc2)cc1` | 20.88% | 0.154% | 4.193% | 83.49% and 3.608% |
| `c1cnc2[nH]nc(C3CCN(Cc4ccsc4)CC3)c2c1` | 5.208% | - | - | -1.471% |
| `COc1cc(Cl)ccc1C(=O)NCc1nncn1C` | 6.087% | -10.48% | -3.087% | 5.216% |
| `Cc1cc(NC(=O)CCN2CCCC2Cn2cncn2)no1` (stereo not shown) | 10.81% | -0.4873% | -16.03% | 4.439% |
| `Cc1nc(C)n(C2CCCN(C(=O)Cc3csc(C(C)C)n3)C2)n1` (stereo not shown) | 14.91% | -1.412% | 9.097% | 10.13% |
| `Cl.NC1CCN(C(=O)c2c(F)cccc2Br)CC1` | - | - | -1.017% | - |
| `Cn1cc(-c2nc3c(cc2C(=O)O)CCN(C(=O)C2CC2)CC3)cn1` | 12.07% | -2.697% | - | - |
| `CCN1CC2(CC1=O)CN(Cc1cccs1)CCN(C(=O)C(C)C)C2` (stereo not shown) | 17.31% | 1.501% | -4.777% | 0.207% |
| `CC(=O)c1cnc(NCCN2CCCC(c3ccccc3)C2)nc1C` (stereo not shown) | 12.94% | -1.06% | 33.19% | -2.265% |
| `Cc1cc(NC(=O)CN2CCCCC2Cn2nc(C)nc2C)on1` (stereo not shown) | 9.649% | -1.12% | 7.262% | 0.1304% |
| `O=C(O)C(F)(F)F.O=C(O)C(F)(F)F.[H][C@@]12COC[C@]1(C(=O)NCc1ccccn1)CN(Cc1scnc1C)C2` | - | - | -20.14% | - |
| `O=S(=O)(Nc1cnn(C2CCOCC2)c1)c1ccc(F)c(F)c1` | 14.56% | 0.3308% | 0.1109% | -0.8872% |
| `O=C(O)c1ccnc2c(Br)cccc12` | 22.12% | -2.168% | 1.008% | 2.804% |
| `Cc1cc(CN2CCC(CNS(=O)(=O)c3ccc(C)s3)CC2)c(C)o1` | 17.2% | -3.25% | -33.58% | 5.724% |
| `COc1ccccc1N1CCN(C(=O)CSCC2CC2)C(C)C1` (stereo not shown) | 0.8333% | -4.631% | -30.8% | -2.857% |
| `COc1cccc2c(C)c(C(=O)N3CCNCC3C(N)=O)[nH]c12.Cl` (stereo not shown) | - | - | -4.403% | - |
| `Cc1nc(N(CCC(N)=O)Cc2ccccc2)c2nc(C)oc2n1` | 10% | 4.874% | 6.742% | 5.533% |
| `CCc1ncc2c(n1)CN(C(=O)CC(C)NC(C)=O)C2` (stereo not shown) | 10.83% | -0.7236% | -27.43% | 2.112% |
| `Cn1ccnc1C1CCN(S(=O)(=O)c2ccc3[nH]c(=O)[nH]c3c2)CC1` | -4.839% | -5.891% | - | 0.369% |
| `CC(C(=O)NCc1cccs1)N1CCN(Cc2nccn2C)CC1` (stereo not shown) | -11.84% | 5.393% | 1.546% | -5.484% |
| `Cn1ncc2c1NC(=O)CC2c1cc2c(cc1Cl)OCO2` (stereo not shown) | 5.376% | 0.7042% | 1.671% | 15.43% |
| `C[S+]([O-])CCNC(=O)N1CCSC2(CCCCC2)C1` (stereo not shown) | 18.57% | 1.625% | -4.744% | 8.402% |
| `CC(CNS(C)(=O)=O)Oc1cccc(Cl)c1` (stereo not shown) | 10.45% | -1.183% | -57.73% | -0.4016% |
| `Cc1ccc(C(CNCC2CC2)N2CCOCC2)s1` (stereo not shown) | 1.923% | 0.3752% | -9.784% | 2.692% |
| `[H][C@@]12CCN(C[C@@H]1CN(C)c1ccccc1)[C@@H](CNC(=O)NC(C)C)C2` | - | - | -0.748% | - |
| `O=C(c1ccc(S(=O)(=O)N2CCNCC2)cc1)N1CCCC(O)C1` (stereo not shown) | 3.297% | 3.541% | 23.28% | -1.651% |
| `CCN1CCOC(CNCc2csc(C)n2)C1` (stereo not shown) | 11.54% | -10.44% | 2.408% | 3.584% |
| `Cc1nc(O)cc(C2CCCN(C(=O)COCc3ccccc3)C2)n1` (stereo not shown) | -2.667% | -6.286% | 3.609% | -11.57% |
| `CN(C)C1CCN(C(=O)c2n[nH]c3c2CCN(CC2CCC2)C3)CC1` | 22.64% | - | 0% | 0.9756% |
| `Cn1nccc1-c1ccc2nc(C3CCN(CC4CC4)CC3)nn2c1.O=C(O)C(F)(F)F.O=C(O)C(F)(F)F` | - | - | 3.565% | - |
| `Cn1cnc(S(=O)(=O)N2CCN(Cc3ccco3)CC2)c1Cl` | 6.731% | -3.412% | -3.664% | -7.595% |
| `CCOCC1CN(Cc2cnn(C)c2)Cc2nn(CC3CC3)cc21.O=C(O)C(F)(F)F` (stereo not shown) | - | - | 1.843% | - |
| `O=C(Nc1cc(C2CCOCC2)[nH]n1)c1cc[nH]n1` | 2.941% | -9.217% | -0.9988% | 3.666% |
| `CSCCC1c2nc[nH]c2CCN1Cc1ccccc1C#N` (stereo not shown) | 20.97% | -1.348% | - | 1.353% |
| `c1csc(CN2C[C@@H]3COC[C@]3(COCc3ccncc3)C2)c1` | 27.16% | -0.6427% | - | 0.6402% |
| `COC(=O)c1cccc(S(=O)(=O)NC(=O)COC2CCCCC2)c1` | 6.957% | -6.134% | 8.97% | 2.71% |
| `Cc1cc(OC(F)F)c(C(=O)N2CCC(N(C)C)CC2)s1` | -5.495% | -2.155% | -7.149% | 4.481% |
| `CN(C)CCN1CCCC12CCCN(Cc1ccco1)C2.O=C(O)C(F)(F)F.O=C(O)C(F)(F)F.O=C(O)C(F)(F)F` (stereo not shown) | - | - | 11.46% | - |
| `Cc1sc(C(=O)O)cc1S(=O)(=O)Nc1c(F)cccc1-n1cccn1` | 16.96% | 4.417% | 2.209% | 3.719% |
| `Cc1ccc(C2(O)CCN(Cc3nnc(-c4cccnc4)o3)CC2)nc1` | 17.95% | -2.23% | 5.634% | -5.882% |
| `O=C(CCN1CCOCC1)N1CCC(Cc2ccc(CO)cc2)C1` (stereo not shown) | 15.15% | -4.34% | -2.001% | 1.775% |
| `Cc1nnc(C2Cc3ccccc3CN2Cc2ncc(C(C)(C)C)o2)o1` (stereo not shown) | 8% | 0.07819% | -9.746% | 3.077% |
| `CC(C)NC1CC2(CCNCC2)c2cc(F)ccc21` (stereo not shown) | 17.54% | 2.326% | - | -16.28% |
| `CN(Cc1ccsc1)C(=O)c1ccc2c(c1)NC(=O)CO2` | 26.79% | -9.73% | -2.267% | 5.957% |
| `Cn1nc(COc2cccnc2)c2c1CCN(Cc1ccco1)C2.O=C(O)C(F)(F)F.O=C(O)C(F)(F)F` | - | - | -1.876% | - |
| `CCC(C)N(Cc1sccc1C)C(=O)c1cnc[nH]1` (stereo not shown) | 15.38% | -2.349% | -11.71% | 6.914% |
| `N#Cc1cccc(S(=O)(=O)N2CCCCC2C(N)=O)c1` (stereo not shown) | 13.39% | -2.534% | -5.116% | 3.306% |

4 of the entries, repeated:

Compound	A	B	C	D
Cc1cc(NC(=O)CCN2CCCC2Cn2cncn2)no1 (stereo not shown)	10.81%	-0.4873%	-16.03%	4.439%
CC(C(=O)NCc1cccs1)N1CCN(Cc2nccn2C)CC1 (stereo not shown)	-11.84%	5.393%	1.546%	-5.484%
Cn1ccnc1C1CCN(S(=O)(=O)c2ccc3[nH]c(=O)[nH]c3c2)CC1	-4.839%	-5.891%	-	0.369%
Cc1sc(C(=O)O)cc1S(=O)(=O)Nc1c(F)cccc1-n1cccn1	16.96%	4.417%	2.209%	3.719%

From ChEMBL document CHEMBL3988442, “University of Dundee, Small-Polar-MMV Screening Library” (2021).